Experimental data from article PMC8501101.

Amino acid sequences for entries named in this document (tags omitted). Residues count along the entry.
UniProt Q15811, residues 1-1220: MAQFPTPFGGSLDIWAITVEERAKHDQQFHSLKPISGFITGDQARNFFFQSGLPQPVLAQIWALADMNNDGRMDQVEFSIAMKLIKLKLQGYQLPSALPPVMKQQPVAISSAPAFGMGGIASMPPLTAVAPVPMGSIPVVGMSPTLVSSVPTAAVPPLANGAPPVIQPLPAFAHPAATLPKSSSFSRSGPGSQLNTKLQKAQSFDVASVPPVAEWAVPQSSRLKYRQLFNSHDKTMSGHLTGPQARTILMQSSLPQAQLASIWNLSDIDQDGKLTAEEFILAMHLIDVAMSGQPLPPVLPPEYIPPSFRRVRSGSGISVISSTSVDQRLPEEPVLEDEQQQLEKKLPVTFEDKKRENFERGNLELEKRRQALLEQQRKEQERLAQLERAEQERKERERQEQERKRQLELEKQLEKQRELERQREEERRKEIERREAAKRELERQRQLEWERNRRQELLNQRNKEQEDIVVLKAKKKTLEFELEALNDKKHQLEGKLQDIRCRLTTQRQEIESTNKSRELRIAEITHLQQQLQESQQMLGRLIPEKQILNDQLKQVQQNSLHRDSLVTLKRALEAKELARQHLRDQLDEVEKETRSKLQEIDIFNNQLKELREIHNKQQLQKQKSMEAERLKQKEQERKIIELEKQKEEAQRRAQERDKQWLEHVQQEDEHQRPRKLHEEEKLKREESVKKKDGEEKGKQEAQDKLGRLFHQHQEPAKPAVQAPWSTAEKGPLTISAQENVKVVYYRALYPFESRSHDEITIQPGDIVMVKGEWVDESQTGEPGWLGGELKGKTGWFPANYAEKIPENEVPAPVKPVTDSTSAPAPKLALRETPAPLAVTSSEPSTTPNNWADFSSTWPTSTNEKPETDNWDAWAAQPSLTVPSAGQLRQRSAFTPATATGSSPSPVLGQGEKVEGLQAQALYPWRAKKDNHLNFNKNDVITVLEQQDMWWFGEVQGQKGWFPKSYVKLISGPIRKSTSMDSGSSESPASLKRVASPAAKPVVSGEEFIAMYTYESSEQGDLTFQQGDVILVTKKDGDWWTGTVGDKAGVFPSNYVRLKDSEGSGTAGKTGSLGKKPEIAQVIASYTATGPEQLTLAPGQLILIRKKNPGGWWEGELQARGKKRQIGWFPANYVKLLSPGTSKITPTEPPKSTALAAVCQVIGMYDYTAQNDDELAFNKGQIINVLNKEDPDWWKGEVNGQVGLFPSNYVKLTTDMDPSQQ
UniProt O00443: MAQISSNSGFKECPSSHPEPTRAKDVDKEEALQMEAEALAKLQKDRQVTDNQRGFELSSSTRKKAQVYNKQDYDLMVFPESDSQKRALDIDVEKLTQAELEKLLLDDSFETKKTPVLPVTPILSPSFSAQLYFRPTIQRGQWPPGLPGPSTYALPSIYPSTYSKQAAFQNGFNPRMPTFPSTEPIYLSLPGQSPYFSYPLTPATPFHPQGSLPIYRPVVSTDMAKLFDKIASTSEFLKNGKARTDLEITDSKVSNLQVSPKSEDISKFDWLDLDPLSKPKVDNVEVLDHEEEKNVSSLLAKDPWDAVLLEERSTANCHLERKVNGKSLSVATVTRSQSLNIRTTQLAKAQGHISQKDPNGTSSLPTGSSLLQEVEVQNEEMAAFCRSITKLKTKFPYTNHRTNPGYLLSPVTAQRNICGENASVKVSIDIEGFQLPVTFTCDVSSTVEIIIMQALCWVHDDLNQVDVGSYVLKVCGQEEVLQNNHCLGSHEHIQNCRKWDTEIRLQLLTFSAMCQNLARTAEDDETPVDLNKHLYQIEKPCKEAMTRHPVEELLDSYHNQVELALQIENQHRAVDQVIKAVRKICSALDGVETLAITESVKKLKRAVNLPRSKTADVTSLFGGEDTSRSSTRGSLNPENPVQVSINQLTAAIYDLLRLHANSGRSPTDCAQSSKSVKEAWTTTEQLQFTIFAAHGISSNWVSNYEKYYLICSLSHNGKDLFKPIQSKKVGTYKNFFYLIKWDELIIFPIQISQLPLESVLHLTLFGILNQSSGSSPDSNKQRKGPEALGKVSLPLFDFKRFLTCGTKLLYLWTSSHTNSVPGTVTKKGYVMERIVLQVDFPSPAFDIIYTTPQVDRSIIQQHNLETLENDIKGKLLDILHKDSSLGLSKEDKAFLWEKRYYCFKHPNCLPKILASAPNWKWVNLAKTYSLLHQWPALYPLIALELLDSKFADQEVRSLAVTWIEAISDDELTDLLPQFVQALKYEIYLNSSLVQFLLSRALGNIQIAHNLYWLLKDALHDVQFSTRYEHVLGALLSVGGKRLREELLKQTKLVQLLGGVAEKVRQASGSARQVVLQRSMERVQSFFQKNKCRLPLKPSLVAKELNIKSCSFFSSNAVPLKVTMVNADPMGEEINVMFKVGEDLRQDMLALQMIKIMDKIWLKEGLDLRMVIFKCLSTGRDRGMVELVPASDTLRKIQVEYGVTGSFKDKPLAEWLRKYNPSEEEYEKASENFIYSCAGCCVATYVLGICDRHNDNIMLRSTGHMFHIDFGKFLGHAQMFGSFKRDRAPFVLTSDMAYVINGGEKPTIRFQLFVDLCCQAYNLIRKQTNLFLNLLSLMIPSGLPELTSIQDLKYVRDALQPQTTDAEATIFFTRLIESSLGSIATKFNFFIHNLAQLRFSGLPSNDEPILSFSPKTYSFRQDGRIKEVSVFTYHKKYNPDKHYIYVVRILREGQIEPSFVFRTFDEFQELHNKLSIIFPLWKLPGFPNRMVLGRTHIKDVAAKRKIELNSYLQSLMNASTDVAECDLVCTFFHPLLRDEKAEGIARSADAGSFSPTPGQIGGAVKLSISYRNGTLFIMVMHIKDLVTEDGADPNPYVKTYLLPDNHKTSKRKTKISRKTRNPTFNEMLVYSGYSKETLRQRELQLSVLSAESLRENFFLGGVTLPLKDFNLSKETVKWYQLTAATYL

Target: 3×flag-labeled wild-type ITSN1-S (intersectin1 short isoform) (human) (UniProt Q15811)
Assay: affinity purification with mass spectrometry; cellular extracts of 3×flag-ITSN1-S cells immunopurified with anti-flag M2 gel (4 h, 4 °C), eluted with flag peptides, SDS-PAGE, silver staining, LC-MS/MS

binding: binds
Substance: PI3KC2α (from UniProt O00443 1-1686)

These are yes or no findings as the source states them, for the method shown. In cells and extracts the contact can be indirect. A yes stands for co-enrichment or nearness to the bait. Other partners may have been found.
